Reference: PMC12217281
Results are given in words; binding and its absence hold for the method and conditions named. In cells and extracts the contact can be indirect. Here binding means that the protein was enriched with, or labelled near, the bait; the list need not be complete.

The chains behind the UniProt entries cited, without tags or fusion partners.
UniProt P27144: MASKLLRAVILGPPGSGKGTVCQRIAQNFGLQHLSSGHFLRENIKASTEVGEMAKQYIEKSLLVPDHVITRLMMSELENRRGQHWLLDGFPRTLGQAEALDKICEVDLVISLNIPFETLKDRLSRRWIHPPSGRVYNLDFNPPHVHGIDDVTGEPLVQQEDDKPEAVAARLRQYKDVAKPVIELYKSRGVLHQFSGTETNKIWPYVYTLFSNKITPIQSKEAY

Molecular target: adenylate kinase 4 (AK4) (human (endogenous in 6-10B)) (UniProt P27144)
Experiment: affinity purification with mass spectrometry; 6-10B lysate in IP lysis buffer, anti-AK4 antibody (anti-IgG as negative control) at 4 °C overnight, Protein A/G Sepharose beads, mass spectrometry of the immune complexes

B1: nicotinamide nucleotide transhydrogenase (NNT) (protein, UniProt Q13423 44-1086)
chain: CKAPVKPGIPYKQLTVGVPKEIFQNEKRVALSPAGVQNLVKQGFNVVVESGAGEASKFSDDHYRVAGAQIQGAKEVLASDLVVKVRAPMVNPTLGVHEADLLKTSGTLISFIYPAQNPELLNKLSQRKTTVLAMDQVPRVTIAQGYDALSSMANIAGYKAVVLAANHFGRFFTGQITAAGKVPPAKILIVGGGVAGLASAGAAKSMGAIVRGFDTRAAALEQFKSLGAEPLEVDLKESGEGQGGYAKEMSKEFIEAEMKLFAQQCKEVDILISTALIPGKKAPVLFNKEMIESMKEGSVVVDLAAEAGGNFETTKPGELYIHKGITHIGYTDLPSRMATQASTLYSNNITKLLKAISPDKDNFYFDVKDDFDFGTMGHVIRGTVVMKDGKVIFPAPTPKNIPQGAPVKQKTVAELEAEKAATITPFRKTMSTASAYTAGLTGILGLGIAAPNLAFSQMVTTFGLAGIVGYHTVWGVTPALHSPLMSVTNAISGLTAVGGLALMGGHLYPSTTSQGLAALAAFISSVNIAGGFLVTQRMLDMFKRPTDPPEYNYLYLLPAGTFVGGYLAALYSGYNIEQIMYLGSGLCCVGALAGLSTQGTARLGNALGMIGVAGGLAATLGVLKPGPELLAQMSGAMALGGTIGLTIAKRIQISDLPQLVAAFHSLVGLAAVLTCIAEYIIEYPHFATDAAANLTKIVAYLGTYIGGVTFSGSLIAYGKLQGLLKSAPLLLPGRHLLNAGLLAASVGGIIPFMVDPSFTTGITCLGSVSALSAVMGVTLTAAIGGADMPVVITVLNSYSGWALCAEGFLLNNNLLTIVGALIGSSGAILSYIMCVAMNRSLANVILGGYGTTSTAGGKPMEISGTHTEINLDNAIDMIREANSIIITPGYGLCAAKAQYPIADLVKMLTEQGKKVRFGIHPVAGRMPGQLNVLLAEAGVPYDIVLEMDEINHDFPDTDLVLVIGANDTVNSAAQEDPNSIIAGMPVLEVWKSKQVIVMKRSLGVGYAAVDNPIFYKPNTAMLLGDAKKTCDALQAKVRESYQK
binding: binds
